Our source for the binding values is paper PMC10001230, “A Role for the V0 Sector of the V-ATPase in Neuroexocytosis: Exogenous V0d Blocks Complexin and SNARE Interactions with V0c” (Cells, 2023).

The chains behind the UniProt entries cited, without tags or fusion partners. Where a name states a change or a piece, a line headed by the entry shows the natural chain unless it says otherwise.
UniProt Q5M7T6: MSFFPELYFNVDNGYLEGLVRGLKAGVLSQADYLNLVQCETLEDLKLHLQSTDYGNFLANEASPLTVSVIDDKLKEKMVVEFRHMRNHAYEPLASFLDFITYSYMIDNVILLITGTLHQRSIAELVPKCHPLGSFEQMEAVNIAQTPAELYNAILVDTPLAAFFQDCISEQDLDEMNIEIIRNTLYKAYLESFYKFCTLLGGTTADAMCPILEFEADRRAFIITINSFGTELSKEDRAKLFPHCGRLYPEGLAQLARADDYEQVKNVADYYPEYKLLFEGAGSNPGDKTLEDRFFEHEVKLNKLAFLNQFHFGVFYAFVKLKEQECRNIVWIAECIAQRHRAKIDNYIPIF
UniProt P63081: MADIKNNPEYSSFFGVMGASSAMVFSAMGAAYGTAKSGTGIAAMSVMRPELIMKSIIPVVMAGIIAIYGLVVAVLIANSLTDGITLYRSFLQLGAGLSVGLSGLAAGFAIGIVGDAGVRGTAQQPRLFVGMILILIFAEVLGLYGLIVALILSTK

No constants are given. Whether binding was seen depends on the method and setting.

The assay deals with GST-V0d1 (rat) (UniProt Q5M7T6). Kind of assay: SPR; GST-V0d1 and GST amine-coupled on consecutive flow cells; V0c (50 nM, with or without 2 µM soluble GST-V0d1), V0c L1.2s or V0c L3.4s injected; 25 °C; GST signal subtracted; both purified. On the technique in general: Surface plasmon resonance follows binding to a sensor surface in real time, without labels.

Consider “Full-length V0c-L1.2s mutant (V0c with scrambled loop 1.2) (from UniProt P63081)”, for which the binding entry is “no binding (tested: 50 nM)”.
